In the supplement of paper PMC5355238:
Where a name gives a salt, the structure may show the parent alone. This is one part of the list. Most values lie at the level of the controls, where differences are scatter.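 Reh is a human leukemia cell line; the read-out is the median γH2AX antibody signal in S-phase cells by flow cytometry, with the score counting standard deviations from the median difference of each paired set of plates. Scores above 2.5 were called candidate hits, while scores below -2 mark compounds that lowered the MK1775-induced damage.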

Tested on: Reh
Experiment: Z' of S-phase gammaH2AX difference (drug + MK1775 minus drug alone) (Z-score); higher = stronger synergistic S-phase DNA damage with MK1775
Conditions: MK1775 concentration 400 nM; first compound 10 µM; 4 h

Compound | Z' of S-phase gammaH2AX difference (Z-score)
O=c1c(O)c(-c2cc(O)c(O)c(O)c2)oc2cc(O)cc(O)c12 [Myricetin] + C=CCn1c(=O)c2cnc(Nc3ccc(N4CCN(C)CC4)cc3)nc2n1-c1cccc(C(C)(C)O)n1 [MK1775] | inactive: -0.0534
C#CCN(C)Cc1ccccc1 [Pargyline hydrochloride] + C=CCn1c(=O)c2cnc(Nc3ccc(N4CCN(C)CC4)cc3)nc2n1-c1cccc(C(C)(C)O)n1 [MK1775] | inactive: -0.209
O=c1[nH]c2ccccc2c2ccccc12 [6(5H)-Phenanthridinone] + C=CCn1c(=O)c2cnc(Nc3ccc(N4CCN(C)CC4)cc3)nc2n1-c1cccc(C(C)(C)O)n1 [MK1775] | inactive: 0.412
Cc1cccc(/C=C/c2ccccc2)n1 + C=CCn1c(=O)c2cnc(Nc3ccc(N4CCN(C)CC4)cc3)nc2n1-c1cccc(C(C)(C)O)n1 [MK1775] | inactive: 0.569
CCn1cc(C(=O)O)c(=O)c2ccc(C)nc21 [Nalidixic acid sodium] + C=CCn1c(=O)c2cnc(Nc3ccc(N4CCN(C)CC4)cc3)nc2n1-c1cccc(C(C)(C)O)n1 [MK1775] | inactive: 0.611
CCN(CC)CCNC(=O)c1cc(S(C)(=O)=O)ccc1OC [Tiapride hydrochloride] + C=CCn1c(=O)c2cnc(Nc3ccc(N4CCN(C)CC4)cc3)nc2n1-c1cccc(C(C)(C)O)n1 [MK1775] | inactive: 0.0131
O=C(CCCN1CC=C(n2c(=O)[nH]c3ccccc32)CC1)c1ccc(F)cc1 [Droperidol] + C=CCn1c(=O)c2cnc(Nc3ccc(N4CCN(C)CC4)cc3)nc2n1-c1cccc(C(C)(C)O)n1 [MK1775] | inactive: 1.44
O=C(NCCNCC(O)COc1ccc(O)cc1)N1CCOCC1 (centres undefined) [Xamoterol hemifumarate] + C=CCn1c(=O)c2cnc(Nc3ccc(N4CCN(C)CC4)cc3)nc2n1-c1cccc(C(C)(C)O)n1 [MK1775] | inactive: -0.442
N=C(N)c1ccccc1 [Benzamidine hydrochloride] + C=CCn1c(=O)c2cnc(Nc3ccc(N4CCN(C)CC4)cc3)nc2n1-c1cccc(C(C)(C)O)n1 [MK1775] | inactive: 0.107
CCN(Cc1ccncc1)C(=O)C(CO)c1ccccc1 (centres undefined) [Tropicamide] + C=CCn1c(=O)c2cnc(Nc3ccc(N4CCN(C)CC4)cc3)nc2n1-c1cccc(C(C)(C)O)n1 [MK1775] | inactive: 0.11
CCN(CC)CC#CCOC(=O)C(O)(c1ccccc1)C1CCCCC1 (centres undefined) [Oxybutynin Chloride] + C=CCn1c(=O)c2cnc(Nc3ccc(N4CCN(C)CC4)cc3)nc2n1-c1cccc(C(C)(C)O)n1 [MK1775] | inactive: 0.519
COc1ccc(C(=O)NCc2cccnc2)cc1C(=O)NCc1cccnc1 [Picotamide] + C=CCn1c(=O)c2cnc(Nc3ccc(N4CCN(C)CC4)cc3)nc2n1-c1cccc(C(C)(C)O)n1 [MK1775] | inactive: -0.228
C=CC[C@@H]1/C=C(\C)C[C@H](C)C[C@H](OC)[C@H]2O[C@@](O)(C(=O)C(=O)N3CCCC[C@H]3C(=O)O[C@H](/C(C)=C/[C@@H]3CC[C@@H](O)[C@H](OC)C3)[C@H](C)[C@@H](O)CC1=O)[C@H](C)C[C@@H]2OC [FK-506 (Tacrolimus)] + C=CCn1c(=O)c2cnc(Nc3ccc(N4CCN(C)CC4)cc3)nc2n1-c1cccc(C(C)(C)O)n1 [MK1775] | inactive: 0.000739
O=Nc1c(-c2c(O)[nH]c3ccccc23)[nH]c2ccccc12 [Indirubin-3'-oxime] + C=CCn1c(=O)c2cnc(Nc3ccc(N4CCN(C)CC4)cc3)nc2n1-c1cccc(C(C)(C)O)n1 [MK1775] | inactive: -2.51
COc1ccc2[nH]cc(CCNC(C)=O)c2c1 [Melatonin] + C=CCn1c(=O)c2cnc(Nc3ccc(N4CCN(C)CC4)cc3)nc2n1-c1cccc(C(C)(C)O)n1 [MK1775] | inactive: 0.213
CCCCC/C=C\C[C@@H](O)/C=C/c1cccc(C[C@@H](O)CCCCO)n1 + C=CCn1c(=O)c2cnc(Nc3ccc(N4CCN(C)CC4)cc3)nc2n1-c1cccc(C(C)(C)O)n1 [MK1775] | inactive: -1.32
COc1cc(OC)c(C=C2C(=O)Nc3ccccc32)c(OC)c1 + C=CCn1c(=O)c2cnc(Nc3ccc(N4CCN(C)CC4)cc3)nc2n1-c1cccc(C(C)(C)O)n1 [MK1775] | inactive: 0.0776
CN(NC(=O)CC(=O)NN(C)C(=S)c1ccccc1)C(=S)c1ccccc1 [Elesclomol] + C=CCn1c(=O)c2cnc(Nc3ccc(N4CCN(C)CC4)cc3)nc2n1-c1cccc(C(C)(C)O)n1 [MK1775] | inactive: -3.84
OCCN1CCN(CCCN2c3ccccc3Sc3ccc(Cl)cc32)CC1 [Perphenazine] + C=CCn1c(=O)c2cnc(Nc3ccc(N4CCN(C)CC4)cc3)nc2n1-c1cccc(C(C)(C)O)n1 [MK1775] | inactive: 0.296
NCCCCCCCCCCN [1,10-Diaminodecane] + C=CCn1c(=O)c2cnc(Nc3ccc(N4CCN(C)CC4)cc3)nc2n1-c1cccc(C(C)(C)O)n1 [MK1775] | inactive: -0.44
COC1=CC(c2cc3ccccc3[nH]2)=N/C1=C\c1[nH]c(C)cc1C [Obatoclax mesylate (GX15-070)] + C=CCn1c(=O)c2cnc(Nc3ccc(N4CCN(C)CC4)cc3)nc2n1-c1cccc(C(C)(C)O)n1 [MK1775] | inactive: 0.0924
O=c1oc(Cl)c(Cl)c2ccccc12 [3,4-Dichloroisocoumarin] + C=CCn1c(=O)c2cnc(Nc3ccc(N4CCN(C)CC4)cc3)nc2n1-c1cccc(C(C)(C)O)n1 [MK1775] | inactive: 0.197
NS(=O)(=O)c1cc2c(cc1Cl)NCNS2(=O)=O [Hydrochlorothiazide] + C=CCn1c(=O)c2cnc(Nc3ccc(N4CCN(C)CC4)cc3)nc2n1-c1cccc(C(C)(C)O)n1 [MK1775] | inactive: 0.789
CN(C)CCC=C1c2ccccc2C=Cc2ccccc21 [Cyclobenzaprine hydrochloride] + C=CCn1c(=O)c2cnc(Nc3ccc(N4CCN(C)CC4)cc3)nc2n1-c1cccc(C(C)(C)O)n1 [MK1775] | inactive: -0.444

Two records drawn at random from the list so far:
Compound | Z' of S-phase gammaH2AX difference (Z-score)
CN(NC(=O)CC(=O)NN(C)C(=S)c1ccccc1)C(=S)c1ccccc1 [Elesclomol] + C=CCn1c(=O)c2cnc(Nc3ccc(N4CCN(C)CC4)cc3)nc2n1-c1cccc(C(C)(C)O)n1 [MK1775] | inactive: -3.84
NS(=O)(=O)c1cc2c(cc1Cl)NCNS2(=O)=O [Hydrochlorothiazide] + C=CCn1c(=O)c2cnc(Nc3ccc(N4CCN(C)CC4)cc3)nc2n1-c1cccc(C(C)(C)O)n1 [MK1775] | inactive: 0.789
